In patent US7825160B2, “(Biphenyl) carboxylic acids and derivatives thereof” (Cellzome Limited, priority 2004, dated 2010):
Some of these results come from one statement about several compounds together.

tested on: γ-secretase activity; experiment: Screening for γ-secretase-modulating activity in SKN neuroblastoma cells carrying APP 695 wild type; type: cell-based

IC50, < 10 µM:
CCC[C@@H](C(=O)O)c1cc(OCc2ccccc2)cc(-c2ccc(C(F)(F)F)cc2)c1 (single isomer, unassigned) [LXIV]
CCC[C@H](C(=O)O)c1cc(OCc2ccccc2)cc(-c2ccc(C(F)(F)F)cc2)c1 (single isomer, unassigned) [LXV]
CCC[C@H](C(=O)O)c1cc(OCC2CC2)cc(-c2ccc(C(F)(F)F)cc2)c1 (single isomer, unassigned) [LXIII]
CCC[C@@H](C(=O)O)c1cc(OCC2CC2)cc(-c2ccc(C(F)(F)F)cc2)c1 (single isomer, unassigned) [LXII]
